Reference: PubChem BioAssay AID1053208 (Peter MacCallum Cancer Centre, 2014)

- Test: 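Genes whose silencing cuts survival of bone tumour cells only with doxorubicin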 (primary screen)
- Cells: mouse osteosarcoma cells, early-passage culture from an engineered mouse model of fibroblastic bone tumour
- Reagent: siRNA pool against mouse genes, 40 nM
- Duration: about 120 h (48 h before drug, then 72 h with drug)
- Conditions: doxorubicin 100 nM for 72 h, roughly 30-40% inhibitory dose
- Detection: 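Luminescent ATP signal taken as viability with or without 100 nM doxorubicin for 72 h; mean of two wells set against non-targeting siRNA and turned into robust z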
- Direction: viability z-score with doxorubicin: higher = more viable cells under doxorubicin; viability z-score without drug: higher = more viable cells with knock-down alone
- Call rule: 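Called active if knock-down leaves viability unchanged without drug (z within -2 to 2) but lowers it with doxorubicin (z at or under -2)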
In all, the deposit lists about 17,000 reagents; below is a random part of them. Over the whole deposit, 788 (4.7%) got an active call. 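Calls rest on z-score classes alone; an extra cut-off of viability at most 70% of control was not applied to them.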 Further read-outs or replicates are left out here.

Ankrd1: combined z-score class = no change with or without drug; viability z-score with doxorubicin = -1.24; viability z-score without drug = -1.18; call = inactive
Pcdhgc5: combined z-score class = no change with or without drug; viability z-score with doxorubicin = -1.91; viability z-score without drug = -0.51; call = inactive
A230059G12Rik: combined z-score class = no change with or without drug; viability z-score with doxorubicin = -0.79; viability z-score without drug = -0.51; call = inactive
N4bp1: combined z-score class = no change with or without drug; viability z-score with doxorubicin = 0.11; viability z-score without drug = 0.17; call = inactive
Mageh1: combined z-score class = high cell count without drug only; viability z-score with doxorubicin = 0.22; viability z-score without drug = 2.36; call = inactive

Entries listed so far whose gene name starts with A or a:
Ankrd1: combined z-score class = no change with or without drug; viability z-score with doxorubicin = -1.24; viability z-score without drug = -1.18; call = inactive
A230059G12Rik: combined z-score class = no change with or without drug; viability z-score with doxorubicin = -0.79; viability z-score without drug = -0.51; call = inactive

Additional records follow:
Ncoa6: combined z-score class = high cell count with doxorubicin only; viability z-score with doxorubicin = 2.02; viability z-score without drug = 1.52; call = inactive
Dglucy: combined z-score class = no change with or without drug; viability z-score with doxorubicin = 0; viability z-score without drug = -0.84; call = inactive
Abi3: combined z-score class = no change with or without drug; viability z-score with doxorubicin = -0.22; viability z-score without drug = -0.84; call = inactive
Nyap1: combined z-score class = no change with or without drug; viability z-score with doxorubicin = 0.9; viability z-score without drug = 0.51; call = inactive
Or1j19: combined z-score class = no change with or without drug; viability z-score with doxorubicin = 0; viability z-score without drug = -0.17; call = inactive
Trim14: combined z-score class = no change with or without drug; viability z-score with doxorubicin = 0.67; viability z-score without drug = 0.51; call = inactive
Phox2a: combined z-score class = no change with or without drug; viability z-score with doxorubicin = 0; viability z-score without drug = 0.17; call = inactive
